Results are given in words; binding and its absence hold for the method and conditions named. Some entries that bind do so weakly or less than the wild type. For part of these data: Where a sequence is shown, tags or fusion partners need not be part of it.

T1: human CLL-1 Fc (human) (UniProt Q5QGZ9)
T1 sequence (looked up): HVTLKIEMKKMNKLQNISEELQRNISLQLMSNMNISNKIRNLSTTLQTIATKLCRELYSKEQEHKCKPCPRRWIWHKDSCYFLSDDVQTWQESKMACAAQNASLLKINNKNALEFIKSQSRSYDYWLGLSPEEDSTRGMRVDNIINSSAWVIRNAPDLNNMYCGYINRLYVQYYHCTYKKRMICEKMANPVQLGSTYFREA

T2: human CLL-1 (human) (UniProt Q5QGZ9)
T2 sequence (looked up): T1 sequence (looked up)

B1: CLL-1-9 (scFv)
scFv: QVQLVQSGAEVKEPGASVKVSCKAPANTFSDHVMHWVRQAPGQRFEWMGYIHAANGGTHYSQKFQDRVTITRDTSANTVYMDLSSLRSEDTAVYYCARGGYNSDAFDIWGQGTMVTVSSGGGGSGGGGSGGGGSGGGGSDIVMTQSPSSVSASVGDRVTITCRASQDISSWLAWYQQKPGKAPKLLIYAASSLQSGVPSRFNGSGSGTDFTLTISSLQPEDFATYYCQQSYSTPLTFGGGTKVEIK
B2: CLL-1-13 (scFv)
scFv: QVQLVQSGAEVKKSGASVKVSCKASGYPFTGYYIQWVRQAPGQGLEWMGWIDPNSGNTGYAQKFQGRVTMTRNTSISTAYMELSSLRSEDTAVYYCASDSYGYYYGMDVWGQGTLVTVSSGGGGSGGGGSGGGGSGGGGSDIQMTQSPSSLSASVGDRVTFTCRASQGISSALAWYQQKPGKPPKLLIYDASSLESGVPSRFSGSGSGTDFTLTISSLQPEDFATYYCQQFNNYPLTFGGGTKVEIK
B3: CLL-1-10 (scFv)
scFv: QVQLVQSGGGLVQPGGSLRLSCAASGFTFSSYSMNWVRQAPGKGLEWVSYISSSSSTIYYADSVKGRFTISRDNAKNSLYLQMNSLRAEDTAVYYCARDLSVRAIDAFDIWGQGTMVTVSSGGGGSGGGGSGGGGSGGGGSDIVLTQSPSSLSASVGDRVTITCQASQDISNYLNWYQQKPGKAPKLLIYDASNLETGVPSRFSGSGSGTDFTFTISSLQPEDFATYYCQQAYSTPFTFGPGTKVEIK
B4: CLL-1-4 (scFv)
scFv: QVQLVESGGGLVQPGGSLRLSCAASGFTFSSYWMSWVRQAPGKGLEWVANINEDGSAKFYVDSVKGRFTISRDNAKNSLYLQMNSLRAEDTAVYFCARDLRSGRYWGQGTLVTVSSGGGGSGGGGSGGGGSEIVLTQSPGTLSLSPGGRATLSCRASQSISGSFLAWYQQKPGQAPRLLIYGASSRATGIPDRFSGSGSGTDFTLTISRLEPEDFAVYYCQQYGSSPPTFGLGTKLEIK
B5: CLL-1-3 (scFv)
scFv: QVQLQESGPGLVKPSETLSLTCTVSGGSISSSSYYWGWIRQPPGKGLEWIGSIYYSGSTYYNPSLKSRVSISVDTSKNQFSLKLKYVTAADTAVYYCATPGTYYDFLSGYYPFYWGQGTLVTVSSGGGGSGGGGSGGGGSDIVMTQSPSSLSASVGDRVTITCRASQGISSYLAWYQQKPGKAPKLLIYAASTLQSGVPSRFSGSGSGTDFTLTISSLQPEDFATYYCQQLNSYPYTFGQGTKLEIK
B6: CLL-1-7 (scFv)
scFv: EVQLVESGGGLVKPGGSLRLSCAASGFTFSSYSMNWVRQAPGKGLEWVSSISSSSSYIYYADSVKGRFTISRDNAKNSLYLQMNSLRAEDTAVYYCARDPSSSGSYYMEDSYYYGMDVWGQGTTVTVSSGGGGSGGGGSGGGGSNFMLTQPHSVSESPGKTVTISCTGSSGSIASNYVQWYQQRPGSAPTTVIYEDNQRPSGVPDRFSGSIDSSSNSASLTISGLKTEDEADYYCQSYDSSNQVVFGGGTKLTVL

The first experiment addresses T1, human CLL-1 Fc (human). Briefly: SPR (Biacore T200), human CLL-1 Fc captured on an anti-Fc CM5 chip, scFv as analyte.
Consider B1, for which the binding result was “binds”. On the same count and under the same terms, next, B2: “binds”; B3: “binds”.

Another experiment has as its target T2, human CLL-1 (human). Briefly: ELISA and/or FACS of phage clones after panning on immobilized CLL-1. On the technique in general: An ELISA detects its analyte on a solid surface through an enzyme-linked reagent.
B4: the binding result was “binds”. Regarding B5, the binding result was “binds”. Regarding B6, the binding entry was “binds”.

(Values after patent publication US20210198368A1.)
